Laboratory results as given in patent US20240026019A1 (Innovent, published 2024).
No constants are given. Whether binding was seen depends on the method and setting. Some entries that bind do so weakly or less than the wild type.

B1: chimeric antibody 3C4 (antibody, human IgG1, kappa, V domains shown)
VH: QVQLQQSGPELVKPGASVTISCKASDYSFTNYYIHWVKQRPGQGLEWIGWIYPGNVITKYHEKFKGKAILTADTSSTTAYMQLNSLTSEDSAVYFCARSRATGYFDYWGQGTTLTVSS
VL: DIQMTQTTSSLSASLGDRVTISCRASQDIRNYLNWFQQKPDGTIKLLIYYTSRLHSGVPSRFSGSGSGTDYSLTISNLEQEDMATYFCQQFNTLPWTFGGGTKLEIKR
B2: chimeric antibody 69B1 (antibody, human IgG1, kappa, V domains shown)
VH: QIQLVQSGPELKKPGETVKISCKASGYTFTDYSMNWVKQAPGKGLKWMGWLNTETGEPIYADDFKGRFVFSLETSASTAYLEINNLNDEDTATYFCAREAIYYGTSYVLDYWGQGTSVTVSS
VL: DIVLTQSPASLAVSLGQRATISCRASESVEYYGTNFMQWYQQKPGQPPKLLIYSASNVESGVPARFSGSGSGTDFSLNIHPVEEDDIAVYFCQQSRKDPSTFGEGTNLEIKR
B3: chimeric antibody 72G8 (antibody, human IgG1, kappa, V domains shown)
VH: EVQLQQSGAELARPGASVMLSCKASGYTFTSYWMQWLKQRPGQGLEWIGAIYPGDGDTRYTQKFKGKATLTADKSSSTAYMQLSSLASEDSAVYYCVRDDGLYYAMDYWGQGTSVTVSS
VL: QIVLTQSPTIMSASLGERVTMTCTASSSVSSSYLHWYQQKPGSSPKLWIYSTSNLASGVPARFSGSGSGTSYSLTISSMEAEDAATYYCHQYHRSPPTFGGGTKLEIKR
B4: positive control antibody OPI (humanized antibody SBT-002e in WO 2017083525) (antibody, V domains shown)
VH: QVTLKESGPALVKPTQTLTLTCTFSGFSLSTSGMGVGWIRQPPGKALEWLAHIWWDDDKFYNPSLKSRLTISKDTSKNQVVLTMTNMDPVDTATYYCARLTGTRYFDYWGQGTTVTVSS
VL: DVQMTQSPSSLSASVGDRVTITCKASQDINKFIAWYQQKPGKAPKLLIHYTSTLQPGIPSRFSGSGSGRDYTFTISSLQPEDIATYYCLQYGNLWTFGGGTKVEIK
notes: also called Benchmark OPI

Each binder was assayed against CYNO-TNFR2-His (cynomolgus monkey TNFR2, His tag) (cynomolgus monkey) (assay: BLI (ForteBio), summary of Table 2).
For B1, the binding was “binds”.
For B2, the binding was “binds”.
B3 was tested, and the binding was “binds”.
In the case of B4, the binding is reported as “binds”.
